# Results reported in PubChem BioAssay AID540276 (National Center for Advancing Translational Sciences (NCATS), 2011).
# Hit rate of the full screen: of about 300,000 compounds, about 5,400 (1.8%) were called active. The inconclusive results got no clear call from the source; some entries with a clear call stand among them for comparison. Calls follow the shape of the full dose curve; tested in HEK293 cells. A potency beside an inconclusive call is a rough fit, not a confirmed value.
# Test: qHTS for inhibitors of binding or entry into cells for Marburg Virus
# Settings: Marburg virus pseudotyped entry inhibition, cell reporter; series mostly up to 37.8 µM
# Potency is read from the fitted curve at half-maximal effect.
row,Structure (SMILES),Potency
1,CC(=O)Nc1ccc(S(=O)(=O)Nc2cccc3[nH]ncc23)cc1,"inconclusive: 35.5 µM [inhibitor, single point]"
2,COc1ccc(C(=O)CSc2n[nH]c(-c3ccco3)n2)cc1,inactive
3,CCN(CC)S(=O)(=O)c1cccc(-c2nnc(SC(C)C(N)=O)n2CCc2ccccc2)c1 (configuration not stated),inactive
4,Cc1ccccc1Cn1c(C(=O)OC(C)C)cc2c1ccn2C,"inconclusive: 5.17 µM [activator, partial curve, poor fit]"
5,CSc1ncc(Cl)c(C(=O)N(Cc2ccc(C(C)C)cc2)C2CCS(=O)(=O)C2)n1 (configuration not stated),"inconclusive: 5.01 µM [inhibitor, full curve, poor fit]"
6,Cc1ccc(C)c(N(C(=O)Cn2nnc3ccccc32)C(C(=O)NCc2ccco2)c2ccncc2)c1 (configuration not stated),inactive
7,N/C(Cc1ccc(Cl)cc1Cl)=N\OC(=O)Cc1cccs1,inactive
8,O=C(CN1CCN(c2cccc(Cl)c2)CC1)NC1CCCc2ccccc21 (configuration not stated),"inconclusive: 14.1 µM [inhibitor, partial curve, poor fit]"
9,COc1ccc(-n2cc(-c3ccc4c(c3)OCO4)n(CC(=O)Nc3cccc(C)c3)c2=O)cc1,inactive
10,CCOCc1cnc(C)nc1NCC(=O)c1c(C)[nH]c2ccc(OC)cc12,inactive
11,CC(C)(C)c1ccc(-n2ncc3c2CCCC3NC(=O)c2cnccn2)cc1 (configuration not stated),"inconclusive: 0.562 µM [inhibitor, full curve, poor fit]"
12,COc1cccc(N2C(=O)CN(Cc3ccc(OC)c(OC)c3)C2=S)c1,inactive
13,O=C(COc1ccccc1)N1N=C(c2cccnc2)CC1(O)C(F)(F)F (configuration not stated),"inconclusive: 6.31 µM [inhibitor, single point]"
14,COC(=O)CCSc1cc(NCCOC(C)=O)c([N+](=O)[O-])c2nonc12,"inconclusive: 1 µM [inhibitor, single point]"
15,CC(C)N(NC(=O)c1cccc2ccccc12)C(C)C,"inconclusive: 7.94 µM [activator, partial curve, poor fit]"
16,O=C(c1ccc(Cn2c(=S)[nH]c3ccccc3c2=O)cc1)N1CCN(c2ccccn2)CC1,"inconclusive: 14.1 µM [inhibitor, partial curve, poor fit]"
17,COc1ccc(OC)c(NC(=O)C2CC(=O)N(CCc3ccccc3)C2)c1 (configuration not stated),"inconclusive: 35.5 µM [inhibitor, single point]"
18,N#CCCn1cc(C=C(C#N)C#N)c(-c2ccc(-c3ccccc3)cc2)n1,"inconclusive: 7.08 µM [inhibitor, partial curve, poor fit]"
19,Cc1ccc(CNC(=O)COC(=O)c2c(C)noc2C)cc1,"inconclusive: 32.6 µM [activator, single point]"
20,COc1ccc(C(=O)Nc2ccc3ccccc3c2)c(OC)c1,"inconclusive: 7.08 µM [inhibitor, partial curve, poor fit]"
21,COC(=O)c1ccc(COC(=O)C2CCN(S(=O)(=O)c3ccc(C)c(C)c3)CC2)o1,"inconclusive: 0.501 µM [activator, full curve, poor fit]"
22,CCOc1ccc(-c2ccc(SCC(=O)Nc3nnc(CC)s3)nn2)cc1,"inconclusive: 1.26 µM [inhibitor, full curve, poor fit]"
23,Cc1ccc(N2C(=O)c3ccc(C(=O)O)cc3C2=O)cc1C,inactive

row,Structure (SMILES),Potency
1,O=C(NC1CCC(O)CC1)c1ccc(-c2ccc(Cl)cc2)o1 (configuration not stated),"inconclusive: 7.08 µM [activator, partial curve]"
2,CCc1ccccc1NS(=O)(=O)c1cc(Br)cc2c1N(C(=O)C1CC1)CC2,"inconclusive: 35.5 µM [inhibitor, single point]"
3,COc1cccc(Cn2c(NCc3ccco3)nc3c2c(=O)n(C)c(=O)n3C)c1,"inconclusive: 18.3 µM [inhibitor, partial curve, poor fit]"
4,CCCOc1ccc(C2NC(=S)NC(C)=C2C(=O)c2ccccc2)cc1OC (configuration not stated),active: 14.6 µM
5,COc1ccc(C(CNC(=O)CCc2ccsc2)N(C)C)cc1 (configuration not stated),"inconclusive: 35.5 µM [inhibitor, single point]"
6,Cc1cccc(/C=C2/S/C(=N/N=C3\CC4CCC3(C)C4(C)C)NC2=O)c1 (configuration not stated),"inconclusive: 0.891 µM [inhibitor, full curve, poor fit]"
7,O=C(c1ccccc1Oc1ccccc1)N1CCN(c2ccccc2)CC1,inactive
8,Cc1ccc(S(=O)(=O)Nc2ccccc2C(=O)OC(C)C(=O)Nc2ccc3ccccc3c2)cc1[N+](=O)[O-] (configuration not stated),"inconclusive: 0.731 µM [inhibitor, full curve, poor fit]"
9,CN(Cc1nc(C(c2ccccc2)c2ccccc2)no1)CC1COCCO1 (configuration not stated),inactive
10,Cc1cc(N)c2ccccc2[n+]1CCCCCCCCCCCCCC[n+]1c(C)cc(N)c2ccccc21,active: 8.91 µM
11,O=C1[C@H]2[C@@H]3[C@@H](O)[C@H](O)CC(=NOCc4ccccc4)[C@@H]3CC[C@H]2C(=O)N1C1CCCCC1,inactive
12,Cc1ccccc1C(=O)NC(=S)Nc1sc2c(c1C#N)CCCC2,inactive
13,Nn1c(SCC(=O)NC2CCCCCC2)nnc1C(F)(F)F,"inconclusive: 11.2 µM [inhibitor, partial curve]"
14,CC(C)Sc1nc2sccc2c(=O)n1-c1ccccc1,inactive
15,CCOc1ccc(S(=O)(=O)c2c(C(=O)c3ccccc3)cnc3cc4c(cc23)OCCO4)cc1,"inconclusive: 5.62 µM [inhibitor, single point]"
16,COc1ccc(-c2cc(C(=O)Nc3cc(S(N)(=O)=O)ccc3C)c3ccccc3n2)cc1OC,"inconclusive: 3.16 µM [inhibitor, full curve, poor fit]"
17,O=C(CSc1ccc(-c2ccc(F)cc2)nn1)NCC1CCCO1 (configuration not stated),"inconclusive: 6.31 µM [activator, partial curve, poor fit]"
18,NC(=O)C1CCN(C(=O)c2ccc3ccccc3c2)CC1,inactive
19,O=C(Oc1ccc(-n2cnnn2)cc1)c1ccccc1,"inconclusive: 35.5 µM [activator, single point]"
20,CCOC(=O)C1C(=O)C=C(N2CCOCC2)CC1c1cccc(OC)c1 (configuration not stated),inactive
21,O=c1[nH]c(Cc2ccc(Cl)cc2)nc2ccccc12,"inconclusive: 6.31 µM [inhibitor, partial curve, poor fit]"
22,CC(C)c1cc(C(N)=O)c(NC(=O)c2cccc(COc3ccc(Cl)cc3)c2)s1,active: 3.16 µM
23,COc1cccc(COc2ccc(N(C)S(=O)(=O)c3ccccc3)cc2)c1,"inconclusive: 11.2 µM [inhibitor, single point]"

# Reformatted with bars between the fields: part of the list above
row | Structure (SMILES) | Potency
9 | CN(Cc1nc(C(c2ccccc2)c2ccccc2)no1)CC1COCCO1 (configuration not stated) | inactive
10 | Cc1cc(N)c2ccccc2[n+]1CCCCCCCCCCCCCC[n+]1c(C)cc(N)c2ccccc21 | active: 8.91 µM
11 | O=C1[C@H]2[C@@H]3[C@@H](O)[C@H](O)CC(=NOCc4ccccc4)[C@@H]3CC[C@H]2C(=O)N1C1CCCCC1 | inactive
12 | Cc1ccccc1C(=O)NC(=S)Nc1sc2c(c1C#N)CCCC2 | inactive
13 | Nn1c(SCC(=O)NC2CCCCCC2)nnc1C(F)(F)F | inconclusive: 11.2 µM [inhibitor, partial curve]
14 | CC(C)Sc1nc2sccc2c(=O)n1-c1ccccc1 | inactive
15 | CCOc1ccc(S(=O)(=O)c2c(C(=O)c3ccccc3)cnc3cc4c(cc23)OCCO4)cc1 | inconclusive: 5.62 µM [inhibitor, single point]
16 | COc1ccc(-c2cc(C(=O)Nc3cc(S(N)(=O)=O)ccc3C)c3ccccc3n2)cc1OC | inconclusive: 3.16 µM [inhibitor, full curve, poor fit]
17 | O=C(CSc1ccc(-c2ccc(F)cc2)nn1)NCC1CCCO1 (configuration not stated) | inconclusive: 6.31 µM [activator, partial curve, poor fit]
18 | NC(=O)C1CCN(C(=O)c2ccc3ccccc3c2)CC1 | inactive
19 | O=C(Oc1ccc(-n2cnnn2)cc1)c1ccccc1 | inconclusive: 35.5 µM [activator, single point]
20 | CCOC(=O)C1C(=O)C=C(N2CCOCC2)CC1c1cccc(OC)c1 (configuration not stated) | inactive
21 | O=c1[nH]c(Cc2ccc(Cl)cc2)nc2ccccc12 | inconclusive: 6.31 µM [inhibitor, partial curve, poor fit]
22 | CC(C)c1cc(C(N)=O)c(NC(=O)c2cccc(COc3ccc(Cl)cc3)c2)s1 | active: 3.16 µM

# (cont.)

row,Structure (SMILES),Potency
1,Cc1ccc(NC(=O)Cn2cccc2)cc1Cl,inactive
2,COc1ccc(-c2cc(C(=O)N/N=C/c3cccnc3)c3ccccc3n2)c(OC)c1,"inconclusive: 11.2 µM [inhibitor, partial curve, poor fit]"
3,Cc1cc(C)cc(N(CC(=O)NCc2ccccc2Cl)S(=O)(=O)c2c(C)[nH]c(=O)[nH]c2=O)c1,"inconclusive: 4.47 µM [activator, single point]"
4,CN(C)S(=O)(=O)c1ccc(C(=O)N2CCN(S(=O)(=O)c3cccs3)CC2)cc1,inactive
5,COc1ccc(O)c(CN2CCN(C/C=C/c3ccccc3)CC2)c1,"inconclusive: 6.51 µM [activator, single point]"
6,O=C(CN(c1ccc(F)cc1)S(=O)(=O)c1ccc2c(c1)OCCO2)Nc1ccccc1,inactive
7,COC(=O)C1=C(Nc2ccc(C)cc2)C=C(C)C(C(=O)OC)C1c1ccc(F)cc1 (configuration not stated),"inconclusive: 5.8 µM [inhibitor, full curve, poor fit]"
8,CC(NC1c2ccccc2-c2ccccc21)c1ccccc1 (configuration not stated),"inconclusive: 12.6 µM [inhibitor, partial curve, poor fit]"
9,CC1CCc2c(sc3nc(CSc4ncn[nH]4)[nH]c(=O)c23)C1 (configuration not stated),"inconclusive: 0.631 µM [activator, partial curve, poor fit]"
10,COc1cc(CN(C)CC2CCCN(CCc3ccccc3F)C2)cc(Cl)c1OC (configuration not stated),"inconclusive: 7.94 µM [inhibitor, partial curve, poor fit]"
11,CCSc1nnc(NC(=O)c2ccc(S(=O)(=O)N(C)C)cc2)s1,"inconclusive: 3.16 µM [activator, full curve, poor fit]"
12,CC(C(=O)NCc1ccc(F)cc1)n1ccc2cc(S(=O)(=O)N3CCCC3)ccc21 (configuration not stated),"inconclusive: 8.91 µM [inhibitor, partial curve]"
13,CC(=O)Nc1ccc(Nc2c([N+](=O)[O-])cc(S(C)(=O)=O)cc2[N+](=O)[O-])cc1,"inconclusive: 4.47 µM [inhibitor, full curve, poor fit]"
14,CCc1ccc(CC2(O)CC(C)N(C)CC2C)cc1 (configuration not stated),"inconclusive: 3.55 µM [inhibitor, single point]"
15,COc1cccc(NC(=O)CN2CCCN(S(=O)(=O)c3ccc(Br)cc3)CC2)c1,inactive
16,Cc1cc(OCCCCCNCCO)cc(C)c1Cl,"inconclusive: 29.1 µM [inhibitor, single point]"
17,COC(=O)C1(C)Nc2ccccc2C(=O)N1c1ccccc1OC (configuration not stated),inactive
18,C=CCN1CC2(c3ccccc3)CN(CC=C)CC(c3ccccc3)(C1)C2=O,"inconclusive: 35.5 µM [inhibitor, single point]"
19,COc1ccc(-c2[nH]ncc2CN(CCO)CC23CC4CC(CC(C4)C2)C3)c(OC)c1,"inconclusive: 17.8 µM [inhibitor, partial curve, poor fit]"
20,Cc1ccc2[nH]c3c(c2c1)CCC3=O,inactive
21,O=C(NCc1ccco1)Nc1ccc(Br)cc1,"inconclusive: 10 µM [activator, partial curve, poor fit]"
